Reference: PMC6722097
Results are given in words; binding and its absence hold for the method and conditions named. Binding seen in cells or lysates may run through a third protein. Some binding calls cover weakened binding; strength is not graded here.

By UniProt entry, the sequences of proteins in these tests, tags left out.
UniProt P35570: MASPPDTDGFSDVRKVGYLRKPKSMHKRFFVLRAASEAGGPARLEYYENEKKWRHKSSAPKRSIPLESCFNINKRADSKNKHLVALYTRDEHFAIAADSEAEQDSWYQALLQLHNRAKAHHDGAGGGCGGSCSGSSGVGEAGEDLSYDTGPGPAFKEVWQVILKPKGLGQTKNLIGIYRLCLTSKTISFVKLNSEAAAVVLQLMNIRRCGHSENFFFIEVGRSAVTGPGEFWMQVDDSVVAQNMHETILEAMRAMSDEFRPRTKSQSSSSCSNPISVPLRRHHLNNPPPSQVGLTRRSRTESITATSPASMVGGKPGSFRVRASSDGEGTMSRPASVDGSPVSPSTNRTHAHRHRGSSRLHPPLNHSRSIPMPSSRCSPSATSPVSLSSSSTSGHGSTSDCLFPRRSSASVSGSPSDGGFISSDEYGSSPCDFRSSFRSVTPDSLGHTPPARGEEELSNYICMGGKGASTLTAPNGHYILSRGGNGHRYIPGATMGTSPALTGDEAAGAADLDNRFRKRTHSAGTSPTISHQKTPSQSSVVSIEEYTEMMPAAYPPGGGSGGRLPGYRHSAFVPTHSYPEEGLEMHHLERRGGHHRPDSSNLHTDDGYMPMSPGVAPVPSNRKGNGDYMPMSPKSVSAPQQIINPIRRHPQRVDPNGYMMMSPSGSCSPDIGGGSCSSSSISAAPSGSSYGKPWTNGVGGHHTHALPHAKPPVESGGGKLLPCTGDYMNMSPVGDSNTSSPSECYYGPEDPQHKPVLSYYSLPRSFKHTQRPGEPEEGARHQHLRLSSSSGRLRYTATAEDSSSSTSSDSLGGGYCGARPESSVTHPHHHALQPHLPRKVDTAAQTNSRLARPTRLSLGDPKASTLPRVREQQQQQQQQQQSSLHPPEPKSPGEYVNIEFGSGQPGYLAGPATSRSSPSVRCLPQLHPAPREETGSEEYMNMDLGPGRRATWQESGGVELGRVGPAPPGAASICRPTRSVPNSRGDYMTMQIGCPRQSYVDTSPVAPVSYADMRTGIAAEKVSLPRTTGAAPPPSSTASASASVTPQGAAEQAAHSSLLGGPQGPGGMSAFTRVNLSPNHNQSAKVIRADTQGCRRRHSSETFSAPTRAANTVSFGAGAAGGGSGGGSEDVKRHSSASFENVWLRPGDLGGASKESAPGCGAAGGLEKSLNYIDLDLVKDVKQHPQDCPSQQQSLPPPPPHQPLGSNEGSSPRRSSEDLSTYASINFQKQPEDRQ

Experiments:
[1] = target: phosphorylated PDGFRβ, endogenous in normal human diploid fibroblast clone cells (human (endogenous in NHDF)) (UniProt P09619); experiment: co-IP; NHDF clone cells (NHDFWT-1, NHDFWT-2, NHDFM-1) serum-starved, treated 5 min with insulin (100 ng/ml) or 10 min with PDGF (8 ng/ml), washed, chased 0, 1, 2 or 4 h, lysed; immunoprecipitation and Western blot (antibodies not told in the text shown; Supplementary Fig. 7)
[2] = target: phosphorylated IRS-1, endogenous in PC12m3 clone cells (rat (endogenous in PC12m3)) (UniProt P35570); experiment: co-IP; serum-starved PC12m3 clone cells (PC12m3p85βWT2, M1, M2) treated with insulin (100 ng/ml), ligand removed, chased 1 or 2 h; Nonidet P-40 lysates precipitated with an anti-IRS-1 antibody on G-Sepharose beads; blot with a p85α antibody

## p85α protein, endogenous in normal human diploid fibroblast clone cells (from UniProt P27986 1-724)
[1]
  binding: binds

## p85α regulatory subunit of PI3K, endogenous in PC12m3 clone cells (from UniProt Q63787-1 1-724)
[2]
  binding: binds
